Experimental data reported in article PMC5826183.
Results are given in words; binding and its absence hold for the method and conditions named.

By UniProt entry, the sequences of proteins in these tests, tags left out. Residues count along the entry.
UniProt P13664, residues 48-302: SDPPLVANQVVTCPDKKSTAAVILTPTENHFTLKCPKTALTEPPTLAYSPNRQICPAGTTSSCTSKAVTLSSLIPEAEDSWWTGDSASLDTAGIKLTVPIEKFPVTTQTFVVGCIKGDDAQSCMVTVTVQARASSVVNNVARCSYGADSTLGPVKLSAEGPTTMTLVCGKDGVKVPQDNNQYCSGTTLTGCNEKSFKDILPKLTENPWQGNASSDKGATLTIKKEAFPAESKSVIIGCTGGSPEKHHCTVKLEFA

Molecular target: SAG1t (untargeted D1D2 domains of the Toxoplasma gondii surface antigen SAG1) (Toxoplasma gondii) (UniProt P13664)
Assay: SEC; Superdex 75 10/300 GL column, Akta purifier, 0.5 nmol of each purified protein loaded; both purified

SAG1t (untargeted D1D2 domains of the Toxoplasma gondii surface antigen SAG1) (from UniProt P13664 48-302) (domain or fragment)
binding: no binding (tested: 0.5 nmol loaded)
